“Also recorded” adds a separate entry of the source. At least one structure is not confirmed: it was looked up by name or label, or the drawing left a doubt.
Experiments:
[1] = tested on: GLUT4 in 3T3-L1 adipocytes; test: GLUT4 translocation in 3T3-L1 cells (mycGLUT4 ELISA, membrane fractionation); type: cell-based; conditions: wortmannin 100 nmol/l 20 min, BIS-1 100 nmol/l 1 h
Description: GLUT4 Translocation Assay in GLUT4 Overexpressing Cell lines. CHO clones expressing insulin receptor and GLUT4eGFP protein were plated on a microscopic chamber slide (ICN, Costa Mesa, Calif.), serum starved in DMEM containing 1 mg/ml BSA for 3 h, followed by treatment with 100 nmol/l insulin or 25 mg/l FSE for 10 and 30 min respectively. Treatment was terminated by keeping the slide on ice and washing with cold PBS. Cells were fixed with 3% para-formaldehyde (PF) in PBS for 15 min at room temperature. GLUT4 translocation was investigated by using LSM confocal microscope (Zeiss LSM 510, Heidelberg, Germany). 3T3-L1 expressing mycGLUT4 were grown in 96 well plated then differentiated to adipocytes, serum starved for 3 h and incubated with insulin or FSE for 10 and 30 min respectively. To examine the specificity of the signaling pathway the cells were pretreated with wortmannin (100 nmol/l) or BIS-1 (100 nmol/l) for 20 min and 1 h respectively. […] The optical absorbance of the supernatant was measured at 414 nm. […]
(§1) Effect of FSE on glucose transport in GLUT4 overexpressing cells. […] CHO cells overexpressing insulin receptor as well as GLUT4 were incubated in the presence of various concentrations of FSE for 30 min and glucose transport was measured by determining the rates 2DG uptake. […]

[2] = tested on: PKCλ in 3T3-L1 adipocytes; test: PKCλ in plasma membrane fraction of 3T3-L1 adipocytes (immunoblotting); type: cell-based; conditions: wortmannin 100 nmol/l 20 min, BIS-1 100 nmol/l 1 h
Description: Isolation of plasma membrane fraction and immunoblotting detection of PKCλ and GLUT4 in 3T3-L1 adipocytes. Differentiated 3T3-L1 cells in 100 mm petri dishes were serum starved for 3 h in DMEM supplemented with 0.1% BSA and then treated with 100 nmol/l insulin or […] for 10 min and 30 min respectively. In some cases cells were pre-treated with 100 nmol/l wortmannin, for 20 min or 100 nmol/l BIS-1 for 1 h followed by treatment with extract t for additional 30 min. Plasma membrane fractionation of 3 T3-L1 adipocytes was performed as previously described (28) with slight modifications that 1 mmol/l PMSF, 1 mmol/l Na3VO4 and a cocktail of protease inhibitors were added to the lysis buffers. Equal protein was diluted with 5× Laemmli buffer, electrophoresied by 10% SDS-PAGE and transferred on to a nitrocellulose membrane. The membrane was probed with anti-nPKCλ or anti-GLUT4 antibody.
Effect of FSE on PKCλ translocation in 3T3-L1 and RepG2 cells. […] To investigate the link between FSE induced 1R phosphorylation and GLUT4 translocation, translocation of PKCλ was studied in both 3T3-L1 and HepG2. […] In unstimulated HepG2 cells the immunofluorescence was minimum as visualized by confocal microscopy. […] Wortmannin and bis-1 decreased the fluorescence associated with the membrane.

[3] = tested on: CHO clones expressing insulin receptor and GLUT4eGFP; test: Glucose transport (2-DG uptake) in GLUT4 overexpressing CHO cells; type: cell-based; conditions: wortmannin 20 min or BIS-1 100 nmol/l 1 h, then extract 30 min
Description: Cell Culture In Vitro Studies. […] For preadipocyte differentiation 80% confluent preadipocytes were cultured for 2 days in differentiation medium (DMEM supplemented with 1 μmol/l insulin, 0.5 mmol/l IBMX, 0.25 μmol/l DEX containing 10% FBS) and for 2 days in DMEM supplemented with 1 μmol/l insulin and 10% FBS. Thereafter the cells were grown for an additional 4-5 days in DMEM containing 10% FBS. Media was changed on every second day without any additional supplements. CHO clones expressing insulin receptor and GLUT4eGFP protein were grown in media supplemented with hygromycin additionally (100 μg/ml). Penicillin (100 units/ml) and streptomycin ([…]) were added routinely to cultures and all cell lines were cultivated at 37° C. in a 5% CO2 enriched humidified atmosphere.
Effect of FSE on glucose transport. […] Protein was estimated and the radioactivity incorporated into cells was quantified by scintillation counting (Packard, Albertville, Minn.). Nonspecific uptake, measured in the presence of 10 μmol/l cytochalasin B, was subtracted from all values. […]
as §1

PKCλ in HepG2 cells = test: Confocal microscopy analysis of PKC translocation in HepG2 cells; type: cell-based, human; conditions: HepG2, pretreatment before extract
Description: Confocal microscopy analysis of PKC translocation in HepG2 cells. HepG2 cells were serum starved for 3 h and were treated with either 100 nmol/l insulin for 10 min or 25 mg/l FSE for 30 min. In some wells, cells were pretreated with pharmacological inhibitors before treating with extract. Cells were washed quickly with cold PBS and fixed by treating with 3% paraformaldehyde in PBS Ph 7.4, for 15 min at room temperature, rinsed with PBS three times and quenched with 1% glycine for 10 min. Cells were permeabilised with 0.025% saponin in PBS, for 5 min, blocked with PBS containing 5% FBS for 1 h at room temperature, incubated with anti-PKC antibody for overnight at 4° C. in PBS oontaining 2.5% FBS. Cells were washed four times for 5 min each with PBS. Cells were then incubated with a flourescein isothoicyanate conjugated anti-rabbit antibody for additional 1 h, washed again and mounted using vectashield (Vector Laboratories, Burlingame, Calif.) for visualization by confocal microscopy. Rabbit IgG was used as an isotype control.
Effect of FSE on PKCλ translocation in 3T3-L1 and RepG2 cells. […] To investigate the link between FSE induced 1R phosphorylation and GLUT4 translocation, translocation of PKCλ was studied in both 3T3-L1 and HepG2. […] Wortmannin and bis-1 decreased the fluorescence associated with the membrane.

COC[C@H]1OC(=O)c2coc3c2[C@@]1(C)C1=C(C3=O)[C@@H]2CCC(=O)[C@@]2(C)C[C@H]1OC(C)=O [wortmannin]
effect of inhibitor pretreatment on FSE induced GLUT4 translocation [1]: inhibited; also recorded: masked
effect of inhibitor pretreatment on translocation of PKCλ induced by FSE [2]: inhibited
effect of inhibitor pretreatment on FSE stimulated glucose uptake [3]: inhibited; also recorded: abrogated
effect of inhibitors on fluorescence associated with the membrane (PKCλ in HepG2 cells): decreased
